Whole data set: some 3,200 compounds, median “TSA(with NAD+) / Primary screening (TSA) / delta Tm (K)” near -0.04, cut for the highest 2% near 0.37. The list shows a part of the results.
The compounds below were run against NAD-dependent deacetylase Sirtuin 1 (human, UniProt Q96EB6) (assay: primary screen, delta tm). Details: 10 µM.
Parameters: single well (n = 1, as 'the same TSA')

Protein sequences, listed by entry. Tags and fused reporters are not part of them. Residues count along the entry.
UniProt Q96EB6, 2-747 limits assumed: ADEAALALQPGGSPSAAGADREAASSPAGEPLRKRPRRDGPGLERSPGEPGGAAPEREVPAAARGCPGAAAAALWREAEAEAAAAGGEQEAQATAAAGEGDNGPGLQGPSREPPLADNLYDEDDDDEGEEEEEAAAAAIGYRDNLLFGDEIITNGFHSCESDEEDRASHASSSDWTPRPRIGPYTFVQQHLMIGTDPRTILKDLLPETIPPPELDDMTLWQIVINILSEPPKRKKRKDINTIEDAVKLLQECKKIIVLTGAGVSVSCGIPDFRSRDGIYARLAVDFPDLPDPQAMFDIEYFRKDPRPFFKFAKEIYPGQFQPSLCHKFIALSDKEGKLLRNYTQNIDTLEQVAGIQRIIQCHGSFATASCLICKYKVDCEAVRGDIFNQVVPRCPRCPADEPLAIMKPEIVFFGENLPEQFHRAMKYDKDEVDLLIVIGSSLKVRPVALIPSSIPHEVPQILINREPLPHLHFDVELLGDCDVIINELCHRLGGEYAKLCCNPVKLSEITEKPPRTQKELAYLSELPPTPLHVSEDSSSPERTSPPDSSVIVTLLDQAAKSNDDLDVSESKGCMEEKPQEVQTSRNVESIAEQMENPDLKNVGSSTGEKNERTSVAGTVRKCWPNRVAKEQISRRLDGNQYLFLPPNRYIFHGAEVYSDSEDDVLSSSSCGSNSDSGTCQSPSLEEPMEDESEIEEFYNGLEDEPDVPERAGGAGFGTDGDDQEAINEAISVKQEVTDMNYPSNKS

Row | Structure (SMILES) | TSA(with NAD+) / Primary screening (TSA) / delta Tm (K)
1 | Cc1ccc(-n2nnnc2SCc2nc3c(cnn3-c3ccccc3)c(=O)[nH]2)cc1 | -0.11
2 | Cc1ccc(OCCNC(=O)Cc2coc3cc4c(cc23)CCC4)cc1 | -0.12
3 | Cc1ccc(OCC(O)Cn2c(C(F)(F)F)ccc(C(N)=O)c2=O)cc1 (centres unmarked) | 0.01
4 | OCn1cnc2ccccc21 | -0.24
5 | C#CCCN1CCN(C(C)C(=O)N(C)C(C)C)CC1 (centres unmarked) | -0.13
6 | Cc1ccc(N(C)S(=O)(=O)c2cccc(C(=O)Nc3ccc(Br)c(C)c3)c2)cc1 | 0.73
7 | Cc1[nH]c2ccc(C(=O)O)cc2c1C | -0.09
8 | CN(C(=O)CSc1nnc(NCc2ccco2)s1)C1CCCc2ccccc21 (centres unmarked) | -0.03
9 | O=C(NC1(C(=O)N2CCN(C(=O)c3cnccn3)CC2)CCOC1)OCc1ccccc1 (centres unmarked) | -0.18
10 | N#Cc1ccc(CN2CCC(CCc3ccc(O)cc3)CC2)cc1 | -0.06
11 | CCC(C)NC (centres unmarked) | 0.35
12 | O=C(c1cnc2c3ccccc3nn2c1)c1ccccc1O | 0.07
13 | CCOc1ccc(C2C(C(=O)c3ccco3)=C(O)C(=O)N2CCCN2CCOCC2)cc1 (centres unmarked) | 0.01
14 | CC1CN(Cc2ccc(F)cc2)CCN1C(C)c1nc(C2CC2)no1 (centres unmarked) | -0.08
15 | O=C(Nc1cc(S(=O)(=O)N2CCOCC2)ccc1OCC(F)(F)F)C1=COCCO1 | 0.01
16 | O=C(O)CCSc1ccc(F)cc1 | 0.06
17 | O=C(O)CCn1cnc2sccc2c1=O | -0.14
18 | CC(Oc1ccc(F)c(Cl)c1)C(N)=O (centres unmarked) | -0.22
19 | Cc1nsc(NCc2cccnc2N2CCC(C(N)=O)CC2)n1 | 0.09
20 | O=C1CCC(C(=O)N(C2CCCC2)C2CC2)N1 (centres unmarked) | -0.01
21 | N#Cc1c(Cn2nnc3ccccc3c2=O)cn2ccccc12 | -0.09
22 | CC(=O)NCCC(=O)C(C#N)C(=O)c1c[nH]c2cc(Cl)ccc12 (centres unmarked) | -0.18
23 | COc1cccc(C(=O)C2=C(O)C(=O)N(CCCN3CCOCC3)C2c2ccncc2)c1 (centres unmarked) | -0.21
24 | CCOC(=O)c1oc2ccccc2c1COC(=O)Cn1cnnn1 | -0.09
25 | Cc1nnnn1Cc1cn2c(C)cccc2n1 | 0.01

Row | Structure (SMILES) | TSA(with NAD+) / Primary screening (TSA) / delta Tm (K)
26 | O=C(NCC1CC1)c1ccc2[nH]c3c(c2c1)CCCCC3 | -0.06
27 | CC(NC(=O)Cc1cc2ccccc2[nH]c1=O)c1ccc2ccccc2c1 (centres unmarked) | -0.03
28 | CCCOc1ccc(C2C(C(=O)c3ccccc3)=C(O)C(=O)N2CCCN2CCOCC2)cc1 (centres unmarked) | -0.03
29 | Cc1ccc2[nH]c3c(c2c1)CC(N)CC3 (centres unmarked) | 0.25
30 | O=C(CSc1nnc(-c2ccccc2)o1)NCCCc1ccccc1 | 0.15
31 | COc1ccc(C(=O)C2=C(O)C(=O)N(CCCN3CCOCC3)C2c2ccccc2)cc1C (centres unmarked) | -0.13
32 | O=C(C1CCN(c2cc(=O)n3ccccc3n2)CC1)N1CCCC1 | -0.01
33 | O=C(Nc1ccc(N2CCN(Cc3ccccc3)CC2)cc1)c1cccc(-n2cnnn2)c1 | -0.01
34 | NCCC[C@@H](N)C(=O)O | -0.08
35 | Cc1nnc(N2CCN(c3ncc(Br)cn3)CC2)c(C(N)=O)c1C | -0.14
36 | NCC1(CN)CCCCC1 | -0.03
37 | O=C(Nc1cccc(S(=O)(=O)N2CCOCC2)c1)C1=COCCO1 | -0.12
38 | C[C@@H](N)CCO | -0.05
39 | N#Cc1ccc(C(=O)Nc2c(Cl)cccc2Cl)cc1 | 0.01
40 | Cc1ccc(CCC2CCNCC2)cc1 | -0.19
41 | COc1cccc2cc(C(=O)C3=C(O)C(=O)N(CCCN4CCOCC4)C3c3ccncc3)oc12 (centres unmarked) | -0.05
42 | Cc1noc(C)c1CC(=O)OCc1cn(-c2ccccc2)nc1-c1ccc(Cl)cc1 | 0.09
43 | Cc1[nH]c2ccccc2c1C(=O)CN1CCCC(C(N)=O)C1 (centres unmarked) | 0.09
44 | O=C(Nc1cccnc1)c1ccc(F)cc1Br | -0.05
45 | COc1ccc(OC)c(C=C2C(=O)NC(=S)NC2=O)c1 | -0.11
46 | Cc1ccc(C)c(NC(=O)CN(C)C(=O)Cn2cnc3scc(-c4ccc(C)s4)c3c2=O)c1 | 0.03
47 | CC1(CN)CC1 | -0.05
48 | COc1ccc(C2C(C(=O)/C=C/c3ccco3)=C(O)C(=O)N2CCN2CCOCC2)cc1OC (centres unmarked) | -0.12
49 | COc1cccc(C2C(C(=O)/C=C/c3ccco3)=C(O)C(=O)N2CCN2CCOCC2)c1OC (centres unmarked) | -0.12
50 | Cc1c(Cl)cccc1NC(=O)CNc1cc(C(N)=O)c(Cl)cc1Cl | -0.03

Single values from the entries so far:
In TSA(with NAD+) / Primary screening (TSA) / delta Tm (K), CN(C(=O)CSc1nnc(NCc2ccco2)s1)C1CCCc2ccccc21 (centres unmarked) shows -0.03
In TSA(with NAD+) / Primary screening (TSA) / delta Tm (K), CCCOc1ccc(C2C(C(=O)c3ccccc3)=C(O)C(=O)N2CCCN2CCOCC2)cc1 (centres unmarked) shows -0.03
In TSA(with NAD+) / Primary screening (TSA) / delta Tm (K), O=C(CSc1nnc(-c2ccccc2)o1)NCCCc1ccccc1 shows 0.15
